From paper PMC11272733, “In vitro assessment of thyroid peroxidase inhibition by chemical exposure: comparison of cell models and detection methods” (Archives of Toxicology, 2024) come the findings set out here.

Each structure is given as a SMILES string. “And” between values parts separate entries of the source, which are not always exact repeats. Identical values can stand only once. Like-named read-outs stand apart in the source and are kept apart here.

This data set is described as follows: Nonspecific influence of chemicals on fluorescence signal (resorufin + H2O2, no lysate).
The mark [1] stands for this setting: 100 uM chemical, 0.3 µM resorufin, 40 µM H2O2, 30 min 37°C, vs solvent control.
Setting [2] is: 200 uM chemical, 0.3 µM resorufin, 40 µM H2O2, 30 min 37°C, vs solvent control.
[3] abbreviates: two highest tested concentrations, resorufin fluorescence.

As to `NC(=O)N1c2ccccc2C=Cc2ccccc21` [CBZ, Carbamazepine, reference compound], the “Mean RFR (Relative Fluorescence Rate)” value runs as follows: under setting [1], 106%; under setting [2], 104%.
As to `NC(Cc1cc(I)c(Oc2cc(I)c(O)c(I)c2)c(I)c1)C(=O)O` [T4, 3,3′,5,5″-Tetraiodo-L-thyronine, reference compound], the “Mean RFR (Relative Fluorescence Rate)” value amounted to 103% (1 uM chemical, 0.3 µM resorufin, 40 µM H2O2) and 99% (2 uM chemical, 0.3 µM resorufin, 40 µM H2O2).
For `CCCCOC(=O)c1ccccc1C(=O)OCCCC` [DBP, Dibutylphthalate], the “Mean RFR (Relative Fluorescence Rate)” value reads like this: under setting [1], 93%; under setting [2], 96%.
As to `CC1(C)S[C@@H]2[C@H](NC(=O)[C@H](N)c3ccccc3)C(=O)N2[C@H]1C(=O)O` [AMP, Ampicillin, reference compound], the “Mean RFR (Relative Fluorescence Rate)” value is, setting by setting: under setting [1], 100%; under setting [2], 103%.
Consider `O=S(=O)(O)C(F)(F)C(F)(F)C(F)(F)C(F)(F)C(F)(F)C(F)(F)C(F)(F)C(F)(F)F` [PFOS, Perfluorooctane sulfonate], for which the “Mean RFR (Relative Fluorescence Rate)” value is 89% under setting [1] and 88% under setting [2]. For the same compound, the slight signal inhibition/quenching result under setting [3] is given as “less than 20%”.
As for `O=C(O)C(F)(F)C(F)(F)C(F)(F)C(F)(F)C(F)(F)C(F)(F)C(F)(F)F` [PFOA, Perfluorooctanoic acid], the “Mean RFR (Relative Fluorescence Rate)” value by setting is: under setting [1], 97%; under setting [2], 95%.
For the compound `CC(C)(c1cc(Br)c(O)c(Br)c1)c1cc(Br)c(O)c(Br)c1` [TBBPA, Tetrabromobisphenol A], the “Mean RFR (Relative Fluorescence Rate)” value is 94% and 83%; the slight signal inhibition/quenching entry is “less than 20%”.
Consider `Oc1cccc(O)c1` [RSC, Resorcinol], for which the “Mean RFR (Relative Fluorescence Rate)” value reads like this: under setting [1], 98%; under setting [2], 99%.
Take `Oc1cc(Cl)ccc1Oc1ccc(Cl)cc1Cl` [TCS, Triclosan]: the “Mean RFR (Relative Fluorescence Rate)” value is, setting by setting: under setting [1], 84%; under setting [2], 83%. Under setting [3], the slight signal inhibition/quenching result is listed as “less than 20%”.
For the compound `O=C(c1ccc(O)cc1O)c1ccc(O)cc1O` [BP2, 2,2′-4,4′-tetrahydroxy benzophenone], the “Mean RFR (Relative Fluorescence Rate)” value under setting [1] came out at 101% and the “Mean RFR (Relative Fluorescence Rate)” value under setting [2] was determined as 106%.
Take `O=P(Oc1ccccc1)(Oc1ccccc1)Oc1ccccc1` [TPP, Triphenyl phosphate]: the “Mean RFR (Relative Fluorescence Rate)” value under setting [1] is on record as 93% and the “Mean RFR (Relative Fluorescence Rate)” value under setting [2] was 92%.
The matching figures for `CCC(Cc1c(I)cc(I)c(N)c1I)C(=O)O` (centres unmarked) [IOP, Iopanoic acid, reference compound]: 103% and 97%.
On to `S=C1NCCN1` [ETU, Ethylene thiourea], for which the “Mean RFR (Relative Fluorescence Rate)” value was 109% and 110%.
As for `Cn1cc[nH]c1=S` [MMI, Methimazole, reference compound], the “Mean RFR (Relative Fluorescence Rate)” value runs as follows: under setting [1], 106%; under setting [2], 104%.
The matching figures for `[O-][Cl+3]([O-])([O-])O` [PCL, Perchlorate]: 108% and 106%.
The matching figures for `CC(C)(c1ccc(O)cc1)c1ccc(O)cc1` [BPA, Bisphenol A]: 103% and 104%.
The matching figures for `CC1=C[C@H]2O[C@@H]3[C@H](O)C[C@](C)([C@@]2(CO)[C@H](O)C1=O)[C@]31CO1` [DON, Deoxynivalenol]: 103% and 109%.
